{"source": "PubChem BioAssay AID1259254 (NCATS, 2017)", "screen": "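Gene knock-downs that lead to re-replication, shown by excess G2 DNA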 (primary screen)", "system": "human HCT116 colorectal cancer cells", "knock-down reagent": "single siRNA against human genes", "time to read-out": "3 days", "detection": "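Nuclei stained with Hoechst and imaged; cell-cycle phase assigned by DNA content; G2 share scaled per plate, non-targeting siRNA 0%, GMNN siRNA 100%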", "reading the numbers": "G2 robust z-score: higher = more G2 cells, more excess DNA replication", "call rule": "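Active siRNAs have a G2 robust z of 5 or more median absolute deviations over the median, which in these data means about 38% or higher of GMNN control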", "note": "The whole screen tested about 59,000 reagents; below is a part drawn at random. About 1,550 of them (2.6%) count as active. 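G2 share is only a proxy for re-replication; each gene was hit by three separate siRNAs, and active genes were retested.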 A number with no mark means an inactive call. The numbers tell different reagents against one gene apart. Not all columns of the deposit are shown. Not given: the amount of reagent."}
{"gene symbol": "NOG (noggin)", "reagent": 1, "G2 robust z-score": 2.31}
{"gene symbol": "NOG (noggin)", "reagent": 2, "G2 robust z-score": -0.591}
{"gene symbol": "NOG (noggin)", "reagent": 3, "G2 robust z-score": -0.792}
{"gene symbol": "MAMSTR", "reagent": 1, "G2 robust z-score": 1.99}
{"gene symbol": "MAMSTR", "reagent": 2, "G2 robust z-score": -0.476}
{"gene symbol": "MAMSTR", "reagent": 3, "G2 robust z-score": 1.73}
{"gene symbol": "DENND6B (DENN domain containing 6B)", "reagent": 1, "G2 robust z-score": -0.536}
{"gene symbol": "DENND6B (DENN domain containing 6B)", "reagent": 2, "G2 robust z-score": -0.371}
{"gene symbol": "DENND6B (DENN domain containing 6B)", "reagent": 3, "G2 robust z-score": 4.91}
{"gene symbol": "NEK6 (NIMA related kinase 6)", "reagent": 1, "G2 robust z-score": -0.947}
{"gene symbol": "NEK6 (NIMA related kinase 6)", "reagent": 2, "G2 robust z-score": -0.793}
{"gene symbol": "NEK6 (NIMA related kinase 6)", "reagent": 3, "G2 robust z-score": -0.558}
{"gene symbol": "EMX1 (empty spiracles homeobox 1)", "reagent": 1, "G2 robust z-score": 1.23}
{"gene symbol": "EMX1 (empty spiracles homeobox 1)", "reagent": 2, "G2 robust z-score": 0.657}
{"gene symbol": "EMX1 (empty spiracles homeobox 1)", "reagent": 3, "G2 robust z-score": -0.94}
{"gene symbol": "IER5L (immediate early response 5 like)", "reagent": 1, "G2 robust z-score": 4.42}
{"gene symbol": "IER5L (immediate early response 5 like)", "reagent": 2, "G2 robust z-score": -0.266}
{"gene symbol": "IER5L (immediate early response 5 like)", "reagent": 3, "G2 robust z-score": 2.19}
